1 molecule from paper PMC6690746 (European journal of medicinal chemistry, 2018) can be followed below.

The experiment concerns T98G cells. The experiment can be described thus: Antitumor activity. In kind it is cell-based, human.

Structures are written as SMILES.

Usually EC50 stands for the concentration giving half of the maximal effect. With `CN[C@H]1CCc2cc(OC)c(OC)c(OC)c2-c2ccc(OC)c(=O)cc21` [colcemide, reference compound], the “Maximal killing (% ± SEM)” value (72 h, at 10 μM) is 35.9% ± 6.4. The concentration giving a half-maximal response (EC50) (read-out: Antitumor activity EC50, WST-1, 72 h) stood at 113 nM.
